The test addresses matrin-type 2 zinc-finger protein ZMAT2 (human (endogenous in primary keratinocytes)) (UniProt Q96NC0). Kind of test: affinity purification with mass spectrometry.

By UniProt entry, the sequences of proteins in these tests, tags left out.
UniProt Q96NC0: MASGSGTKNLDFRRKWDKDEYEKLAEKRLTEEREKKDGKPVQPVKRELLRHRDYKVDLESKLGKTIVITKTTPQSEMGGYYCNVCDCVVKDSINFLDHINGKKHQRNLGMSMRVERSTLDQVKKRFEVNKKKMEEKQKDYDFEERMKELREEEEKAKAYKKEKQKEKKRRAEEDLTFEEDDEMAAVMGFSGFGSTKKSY
UniProt Q07955: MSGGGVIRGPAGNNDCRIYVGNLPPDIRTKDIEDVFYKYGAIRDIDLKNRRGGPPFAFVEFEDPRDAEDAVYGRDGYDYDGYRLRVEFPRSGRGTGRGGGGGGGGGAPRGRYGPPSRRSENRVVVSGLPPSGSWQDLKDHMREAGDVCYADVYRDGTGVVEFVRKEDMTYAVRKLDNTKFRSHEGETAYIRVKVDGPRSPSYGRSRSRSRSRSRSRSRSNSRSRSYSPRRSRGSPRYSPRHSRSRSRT

Results are given in words; binding and its absence hold for the method and conditions named. In cells and extracts the contact can be indirect. A yes stands for co-enrichment or nearness to the bait. Other partners may have been found.

For the substance SRSF1 (from UniProt Q07955 1-248), the binding entry is recorded as “binds”.

Source of the values: doi:10.1101/325332.
